{"source": "PubChem BioAssay AID590", "about": "(National Center for Advancing Translational Sciences (NCATS), 2007)", "note": "The campaign covered roughly 59,000 compounds. About 6,500 (11%) were called active. The inconclusive results got no clear call from the source; some entries with a clear call stand among them for comparison. Rule as the data show it: active = max dye-equivalent concentration above about 10 nM; inconclusive = mostly about 1.1 nM to 9.6 nM; inactive = weaker than that. Some compounds were tested as several samples or in several runs, with calls that do not always agree."}
{"test": "qHTS Assay for Spectroscopic Profiling in A350 Spectral Region", "settings": "Compound autofluorescence, 340/450 nm, Alexa 350 dye-equivalents; active compounds read high"}
{"smiles": "Cc1nc(C)c2c(=O)cc(-c3ccccc3)[nH]c2n1", "max dye-equivalent concentration": "active: 170 nM"}
{"smiles": "CCc1ccc(NC(=O)CS(=O)CC(=O)NC(C)CCc2ccco2)cc1", "note": "(centres undefined)", "max dye-equivalent concentration": "inconclusive: 7.3 nM"}
{"smiles": "CC(C)c1ccc2c(c1)CC[C@@H]1[C@@](C)(CN)CCC[C@@]21C", "max dye-equivalent concentration": "inactive"}
{"smiles": "O=C(CN1CCN(c2ccccn2)CC1)Nc1cc(C(F)(F)F)ccc1Cl", "max dye-equivalent concentration": "inconclusive: 5.7 nM"}
{"smiles": "CC(=O)Nc1ccc(S(=O)(=O)n2cnc(C)c2)cc1", "max dye-equivalent concentration": "inconclusive: 1.8 nM"}
{"smiles": "C/C(Cl)=C\\Cn1c(=O)c2c(nc3n2CCS3)n(C)c1=O", "max dye-equivalent concentration": "inconclusive: 2.1 nM"}
{"smiles": "CC(C)OCCCN1C(=O)c2ccccc2C1C(=O)NC1CCCCC1", "note": "(centres undefined)", "max dye-equivalent concentration": "inconclusive: 1.1 nM"}
{"smiles": "CN(C)c1ccc(-c2nc(NC3CCNCC3)c3ccccc3n2)cc1", "max dye-equivalent concentration": "inconclusive: 2.5 nM"}
{"smiles": "COc1ccc(OC)c2[nH]c(=O)c(CCNS(=O)(=O)c3ccc(Cl)cc3)cc12", "max dye-equivalent concentration": "active: 14 nM"}
{"smiles": "COc1ccc(-c2nnc(SCC(=O)Nc3cc(C)on3)n2C)cc1OC", "max dye-equivalent concentration": "inconclusive: 2.2 nM"}
{"smiles": "N#CCCn1c(=O)c(-c2ccc(Cl)cc2)nc2cnc(OCc3ccccc3)nc21", "max dye-equivalent concentration": "active: 16 nM"}
{"smiles": "Cc1nc2sc(-c3ccccc3)cc2c(=O)n1-n1cccc1", "max dye-equivalent concentration": "inconclusive: 2 nM"}
{"smiles": "Cn1c(=S)c2[nH]c(SCCN3CCCC3)nc2n(C)c1=O", "max dye-equivalent concentration": "inconclusive: 4.3 nM"}
{"smiles": "COc1ccccc1Cn1c2nc3ccccc3nc2c2c(=O)n(CC(C)C)cnc21", "max dye-equivalent concentration": "inconclusive: 4.2 nM"}
{"smiles": "CCOC(=O)C(NC(=O)CC)(Nc1ccc(S(=O)(=O)Nc2onc(C)c2C)cc1)C(F)(F)F", "note": "(centres undefined)", "max dye-equivalent concentration": "inconclusive: 5.2 nM"}
{"smiles": "CC(=O)N(C)C1(c2nnnn2CCOC(=O)Nc2ccc(Cl)cc2)CCCCC1", "max dye-equivalent concentration": "inactive"}
{"smiles": "OC1CN=C2CCCc3c2n(c2ccc(Cl)cc32)C1", "note": "(centres undefined)", "max dye-equivalent concentration": "active: 81 nM"}
{"smiles": "Nc1nc(N)nc(CC(=O)O)n1", "max dye-equivalent concentration": "inactive"}
{"smiles": "CCOC(=O)c1cccc(-n2c(C)nc3ccccc3c2=O)c1", "max dye-equivalent concentration": "inactive"}
{"smiles": "Cc1ccc2cc(C#N)c(N3CCCN(C(=O)C4CCCO4)CC3)nc2c1C", "note": "(centres undefined)", "max dye-equivalent concentration": "active: 110 nM"}
{"smiles": "c1ccc(C[n+]2cccc(-c3cc4ccccc4[nH]3)c2)cc1", "max dye-equivalent concentration": "inactive"}
{"smiles": "Cc1nc2c(C(=O)O)cnn2c(C)c1Cc1ccccc1F", "max dye-equivalent concentration": "inconclusive: 9 nM"}
{"smiles": "CCOC(=O)c1[nH]c2ccc(OC)cc2c1NC(=O)c1nonc1C", "max dye-equivalent concentration": "inconclusive: 3.7 nM"}
{"smiles": "O=C(c1cccc(F)c1)N1CCC2(CCCN(c3ccc(-c4ccccc4)cc3)C2)CC1", "max dye-equivalent concentration": "inactive"}
{"smiles": "CCOC(=O)n1c(=O)oc2cc(S(=O)(=O)N3CCCCC3)ccc21", "max dye-equivalent concentration": "inconclusive: 1.4 nM"}
{"smiles": "Cc1nnc(SCc2cccs2)[nH]c1=O", "max dye-equivalent concentration": "inconclusive: 8.6 nM"}
{"smiles": "CNC(=O)CSc1nnc(-c2ccncc2)n1Cc1ccccc1", "max dye-equivalent concentration": "inconclusive: 4.7 nM"}
{"smiles": "CCOC(=O)CSc1nnc(CNC(=O)c2cc(OCC)c(OCC)c(OCC)c2)n1C", "max dye-equivalent concentration": "inactive"}
{"smiles": "C=C[C@H]1CN2CC[C@@H]1C[C@H]2[C@@H](O)c1ccnc2ccc(OC)cc12", "max dye-equivalent concentration": "inconclusive: 1.9 nM"}
{"smiles": "Cc1cc(C(F)F)n2ncc(C(=O)NCc3ccccc3)c2n1", "max dye-equivalent concentration": "inconclusive: 4.8 nM"}
{"smiles": "O=c1nc2n(c3sc4c(c13)CCC4)Cc1ccccc1-2", "max dye-equivalent concentration": "active: 290 nM"}
{"smiles": "Cc1cc(C)n(-c2ncnc3sc(C)c(C)c23)n1", "max dye-equivalent concentration": "inconclusive: 1.9 nM"}
{"smiles": "CCCn1c(NC(=O)c2ccc(Cl)c(S(=O)(=O)N3CCCC3)c2)nc2ccccc21", "max dye-equivalent concentration": "active: 61 nM"}
{"smiles": "COc1ccc(N(C(=O)Cn2nnc3ccccc32)C(C(=O)NCc2ccco2)c2ccc(C)o2)cc1", "note": "(centres undefined)", "max dye-equivalent concentration": "inactive"}
{"smiles": "CCOc1ccc(S(=O)(=O)n2cnc3cc(C)c(C)cc32)cc1", "max dye-equivalent concentration": "inactive"}
{"smiles": "CCCc1nc(N)c(C#N)c(N)c1C#N", "max dye-equivalent concentration": "inactive"}
{"smiles": "CCCn1c(=NC(=O)c2ccncc2)c(C#N)cc2c(=O)n3cccc(C)c3nc21", "max dye-equivalent concentration": "active: 950 nM"}
{"smiles": "CN(C)c1cccc(C(=O)n2cc(C(=O)c3cc(F)ccc3O)cn2)c1", "max dye-equivalent concentration": "active: 16 nM"}
{"smiles": "O=C(C1CCN(S(=O)(=O)c2ccccc2)CC1)N(CCc1ccccc1)Cc1ccco1", "max dye-equivalent concentration": "inconclusive: 1.3 nM"}
{"smiles": "CC(C)C(O)(C(C)C)C(C)C", "max dye-equivalent concentration": "inactive"}
{"smiles": "CC(C)CN(CC(C)C)C(=O)C12CCC(C)(C(=O)C1)C2(C)C", "note": "(centres undefined)", "max dye-equivalent concentration": "inconclusive: 1.4 nM"}
{"smiles": "CC(=O)Nc1ccc(NC(=O)Cn2cc3c(n2)CCCC3)cc1", "max dye-equivalent concentration": "inactive"}
{"smiles": "CC(C)[C@H](NC(=O)CCn1nnc2ccccc2c1=O)C(=O)O", "max dye-equivalent concentration": "inconclusive: 1.1 nM"}
{"smiles": "O=C(O)C1CC2(C1)CC(C(=O)O)C2", "note": "(centres undefined)", "max dye-equivalent concentration": "inactive"}
{"smiles": "CCOn1c(=O)c(-c2ccc(OC)cc2)[n+]([O-])c2ccccc21", "max dye-equivalent concentration": "inconclusive: 3.5 nM"}
{"smiles": "O=C(NC1=NCCS1)C1COc2ccccc2O1", "note": "(centres undefined)", "max dye-equivalent concentration": "inconclusive: 3.5 nM"}
{"smiles": "CCOC(=O)N1CCc2c(sc3c2C(=O)NC(c2ccccc2)N3)C1", "note": "(centres undefined)", "max dye-equivalent concentration": "active: 15 nM"}
{"smiles": "c1ccc2c(c1)ncn2Cc1nnc2sc(-c3ccc4c(c3)OCO4)nn12", "max dye-equivalent concentration": "inconclusive: 7.4 nM"}
{"smiles": "CN1CCc2c(sc3ncn4nc(-c5ccccc5O)nc4c23)C1", "max dye-equivalent concentration": "active: 15 nM"}
{"smiles": "CCOC(=O)c1oc2ccccc2c1NC(=O)c1ccc(S(=O)(=O)N(C)C)cc1", "max dye-equivalent concentration": "active: 59 nM"}
{"smiles": "COc1ccc(C(=O)NCC(=O)OCC(=O)NC(=O)NC2CCCCC2)cc1OC", "max dye-equivalent concentration": "inconclusive: 1.5 nM"}
{"smiles": "COc1cc2c(cc1OC)C(c1cc3cc(OC)c(OC)cc3[nH]c1=O)N(C(=O)C1CC1)CC2", "note": "(centres undefined)", "max dye-equivalent concentration": "active: 130 nM"}
{"smiles": "CCCn1nc(NC(=O)c2cccs2)c2cc3cc(OC)ccc3nc21", "max dye-equivalent concentration": "inconclusive: 5.1 nM"}
{"smiles": "Clc1ccc(C2=CSC3=NCCN23)cc1Cl", "max dye-equivalent concentration": "inconclusive: 1.2 nM"}
{"smiles": "COc1ccc(NC(=O)c2coc3ccccc23)cc1OC", "max dye-equivalent concentration": "inactive"}
{"smiles": "O=C(O)c1ccnc(C(=O)O)c1", "max dye-equivalent concentration": "inconclusive: 2.1 nM"}
{"smiles": "Cc1ccc(C)c(Oc2nnnn2-c2ccccc2)c1", "max dye-equivalent concentration": "inconclusive: 1.3 nM"}
{"smiles": "O=C1c2ccccc2CC1Sc1nnc(-c2ccncc2)o1", "note": "(centres undefined)", "max dye-equivalent concentration": "active: 140 nM"}
{"smiles": "O=c1cc(CSc2nnc(-c3ccco3)o2)c2ccccc2[nH]1", "max dye-equivalent concentration": "inactive"}
{"smiles": "CCOC(=O)C(NC=O)(NC(C)(C)C)C(=O)OCC", "max dye-equivalent concentration": "inactive"}
{"smiles": "CCN1C(=O)CC(N2CCC(Cc3ccccc3)CC2)C1=O", "note": "(centres undefined)", "max dye-equivalent concentration": "inconclusive: 6.8 nM"}
{"smiles": "COc1ccc(-n2nc3c(c2NC(=O)c2cc4ccccc4oc2=O)CS(=O)(=O)C3)cc1", "max dye-equivalent concentration": "inconclusive: 1.4 nM"}
{"smiles": "NC[C@H](O)c1ccc(O)c(O)c1", "max dye-equivalent concentration": "inactive"}
{"smiles": "CNc1nc(-c2c(C)noc2C)nc2ccccc12", "max dye-equivalent concentration": "inactive"}
{"smiles": "COCCCNC(=O)CCc1nc2cccnc2n1Cc1ccccc1", "max dye-equivalent concentration": "inconclusive: 1.3 nM"}
{"smiles": "Cc1ccc(C)c(NC2=NS(=O)(=O)c3ccccc32)c1", "max dye-equivalent concentration": "inconclusive: 1.5 nM"}
{"smiles": "c1ccc(OCCOc2ncnc3sccc23)cc1", "max dye-equivalent concentration": "inconclusive: 2.1 nM"}
{"smiles": "COc1c(Br)cc(Br)cc1/C=N/n1c(C)nnc1C", "max dye-equivalent concentration": "inconclusive: 3.2 nM"}
{"smiles": "CN(C)CCCn1c2ccccc2c2cnccc21", "max dye-equivalent concentration": "inactive"}
{"smiles": "Cc1occc1-c1nnc(SCC(=O)N2CC(=O)Nc3ccccc32)n1CC(C)C", "max dye-equivalent concentration": "inconclusive: 4 nM"}
{"smiles": "COc1cc2[nH]c(=O)n(Cc3ccc(C(=O)NCC4CCCO4)cc3)c(=O)c2cc1OC", "note": "(centres undefined)", "max dye-equivalent concentration": "inactive"}
{"smiles": "Cc1cccc2cc(COC(=O)c3ccco3)c(=O)[nH]c12", "max dye-equivalent concentration": "inconclusive: 2.5 nM"}
{"smiles": "CN(C)C(=O)c1nc(C#N)c(N(C)C)o1", "max dye-equivalent concentration": "inconclusive: 2.7 nM"}
{"smiles": "CCOC(=O)c1nn(-c2ccc3c(c2)OCO3)cc1O", "max dye-equivalent concentration": "inconclusive: 9 nM"}
{"smiles": "CCn1c(CSc2nc(C)cs2)nc2cc(S(=O)(=O)N(C)C)ccc21", "max dye-equivalent concentration": "inconclusive: 2.9 nM"}
{"smiles": "CCOC(=O)N1CCC(N(CCOC)C(=O)Nc2ccc(Cl)c(Cl)c2)CC1", "max dye-equivalent concentration": "inactive"}
{"smiles": "O=c1nc2c(-c3ccccc3F)n[nH]n2c2ccccc12", "max dye-equivalent concentration": "active: 54 nM"}
{"smiles": "O=C(CCN1C(=O)C2C3C=CC(C3)C2C1=O)Nc1c(F)cc(F)cc1Br", "note": "(centres undefined)", "max dye-equivalent concentration": "active: 12 nM"}
{"smiles": "COCCNC(=O)CN(C(=O)CCC(=O)Nc1nccs1)c1ccccc1OC", "max dye-equivalent concentration": "inconclusive: 4.7 nM"}
{"smiles": "COc1cc(-c2nc3cnccc3n2C)cc(OC)c1OC", "max dye-equivalent concentration": "inactive"}
{"smiles": "COc1cccc(OCCn2cc(C(=O)c3ccco3)c3ccccc32)c1", "max dye-equivalent concentration": "active: 13 nM"}
{"smiles": "COc1cc(C(=O)N2CCN(C(=O)c3ccccc3)CC2)cc(OC)c1OC", "max dye-equivalent concentration": "inconclusive: 2.4 nM"}
{"smiles": "CC(C)OC(=O)CC(=O)CSc1nc2c(cc1C#N)CCC2", "max dye-equivalent concentration": "active: 31 nM"}
{"smiles": "CCC(C)NS(=O)(=O)c1ccc(OCC(=O)NCc2ccco2)cc1", "note": "(centres undefined)", "max dye-equivalent concentration": "inactive"}
{"smiles": "CCOC(=O)c1[nH]c(C)c(C(=O)Nc2cc(OC)ccc2OC)c1C", "max dye-equivalent concentration": "inactive"}
{"smiles": "CCNC(=O)C1CC(=O)N(CC)C(=Nc2cc(Cl)c(O)c(Cl)c2)S1", "note": "(centres undefined)", "max dye-equivalent concentration": "inconclusive: 1.1 nM"}
{"smiles": "COc1ccc(CC(=O)Nc2ccc(OC)c(NC(=O)c3ccco3)c2)cc1", "max dye-equivalent concentration": "inactive"}
{"smiles": "CCCN(CCC)C(=O)CCS(=O)(=O)c1cccc2nsnc12", "max dye-equivalent concentration": "inactive"}
{"smiles": "O=C(c1sc2ccccc2c1Cl)N(Cc1ccco1)C1CCS(=O)(=O)C1", "note": "(centres undefined)", "max dye-equivalent concentration": "inconclusive: 5.4 nM"}
{"smiles": "CC(=O)N1c2c(cc(Br)cc2S(=O)(=O)NCC2COc3ccccc3O2)CC1C", "note": "(centres undefined)", "max dye-equivalent concentration": "inactive"}
{"smiles": "Cc1cccc(-c2nc(CS(=O)CC(=O)NCCCSC3CCCCC3)c(C)o2)c1", "note": "(centres undefined)", "max dye-equivalent concentration": "inconclusive: 1.8 nM"}
{"smiles": "CCOC(=O)N1CCN(C(=O)c2cc(-n3cnnc3)ccc2Cl)CC1", "max dye-equivalent concentration": "inactive"}
{"smiles": "O=C(NCc1ccco1)c1c[nH]c2ccc(S(=O)(=O)N3CCOCC3)cc2c1=O", "max dye-equivalent concentration": "inconclusive: 6.7 nM"}
{"smiles": "C[C@@H]1CCC[C@H](C)N1NC(=O)c1ccc(Cl)c(S(N)(=O)=O)c1", "max dye-equivalent concentration": "active: 2400 nM"}
